This assay has as its target T1, TY145 subtilase (Bacillus sp. TY145).
T1 sequence: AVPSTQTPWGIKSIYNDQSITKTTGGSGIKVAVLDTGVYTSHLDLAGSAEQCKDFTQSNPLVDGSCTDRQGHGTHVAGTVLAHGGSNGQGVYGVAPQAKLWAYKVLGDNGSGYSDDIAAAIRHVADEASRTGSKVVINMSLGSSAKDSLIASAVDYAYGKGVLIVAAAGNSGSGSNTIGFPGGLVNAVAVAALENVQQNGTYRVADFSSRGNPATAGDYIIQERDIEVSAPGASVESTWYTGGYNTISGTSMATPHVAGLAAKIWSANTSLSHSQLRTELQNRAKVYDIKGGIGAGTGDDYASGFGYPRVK
The experiment in a line: X-ray crystal structure of the complex.

Results are given in words; binding and its absence hold for the method and conditions named. Some results given as binding are weak or reduced against the parent protein; the word gives no strength.

B1: CI2 inhibitor (protein)
chain: ATEWPELVGKSVEEAKKVILQDKPEAQIIVLPVGTIVTMEYRIDRVRLFVDKLDNIAEVPRVG
For the molecule B1, the binding entry is “binds”.
